# Source: the supplement of paper PMC10338343
# ± gives the standard deviation. Only a part is listed here, and it is no random draw. Many of these values have a large error.
# Tested on: MIWI (PIWIL1) piRISC loaded with L1MC piRNA (30 nt)
# Assay: pre-steady-state target cleavage rate (min^-1); MIWI and MILI are mouse PIWI proteins and EfPiwi is from a freshwater sponge; tags in brackets are library labels; higher = faster piRNA-guided slicing of the target
# Conditions: guide: L1MC piRNA 5'p-UAACUAAAUACUAUGCAAGCUGUAGGUCCU; auxiliary factor: 500 nM mouse GTSF1
# Method in brief: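 Reactions were run for 0–8 or 0–960 min at 33 °C in HEPES–potassium acetate buffer, combining 1 nM active affinity-purified piRISC with one synthetic guide, […] transcribed, DNA-blocked target RNA library and, in some cases, 500 nM GTSF1 partner protein. Sequencing of uncleaved targets followed, with normalisation to depth and to weakly complementary targets. Three trials were pooled, k3 was capped at 0.0001 min^-1, and the pre-steady-state cleavage rate was taken from a burst-and-steady-state fit.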
# 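Also: 1 nM active piRISC with 0.1 nM target library at 33 °C single turnover.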
row,Sequence,pre-steady-state target cleavage rate
1,UCGACCUACGCUUGCAUAGUAUUUAGUUA,1.45 ± 0.052
2,AGGACCUACAGCUUGCAUAGUAUAUUCAAA,0.419 ± 0.072
3,UCCUGGAUGUCGAACGUAAGAUAUUUAGUUA,0.000223 ± 0.017

# Same assay, conditions: guide: L1MC piRNA 5'p-UAACUAAAUACUAUGCAAGCUGUAGGUCCU; auxiliary factor: none (no GTSF1)
row,Sequence,pre-steady-state target cleavage rate
1,UGGACCUACAGCUUGCAUAGUAAAAAGAAA,0.000665 ± 0.0073
2,UCCUGGAUGAGCUUGCAUAGUAUUAUCAAA [g7:g21:cont:t1A],0.00189 ± 0.0025
3,UCCACCUACAGGUUGCAUAGUAUUUUCAAA,0.000643 ± 0.0081
4,UGGACCUACAGCUUGCAUUGUAUUUUCAAA,0.00225 ± 0.003
5,AGGACCUACAGCUUGCAUUGUAUUUACAAA,0.00193 ± 0.0041
6,UCCUGGAUGUCGAACGUAUAUAUUUAGUUA,0.000348 ± 0.017
7,UCCUCCUACAGCUACCAUAGUAUUUAGUAA,0.000806 ± 0.0057
8,UCCUGGAUGUCGAUGCAUCGUAUUUAGUUA,0.0014 ± 0.0056
9,UCCUGCUACAGCUUGUCAUAGUAUUUAGUUA,0.00205 ± 0.004
10,UGGACCUACAGCAACCAUAGUAUUUUCAAA,0.000143 ± 0.015
11,UCCACCUACUGCUUGCAUAGUAUUUUCAAA,0.00164 ± 0.0033
12,UCCACCUACAGCUACCAUAGUAUUUUCAAA,0.000232 ± 0.013
13,UCCACCUACUCGUUGCAUAGUAUUUACAAA,0.000948 ± 0.0059
14,UCCACCUACAGCUUCGAUAGUAUUUAGAAA,0.000312 ± 0.011
15,UGGACCUACAGCUUGCAUAGUUUUUACAAA,0.00206 ± 0.0029
16,UCGACCUACAGCUUGCAUAUGUAUUUAGUUA,0.0012 ± 0.008
17,AGGACCUACAGCUUCCAUAGUAUUAAGUUA,0.00102 ± 0.0076
18,UCCUGGAUGUCGAACGUAAGGUAUUUAGUUA,0.000311 ± 0.019
19,UGGACCUACAGCUUGCAUAGUUUUAGUUA,0.000455 ± 0.0054
20,UCCACCUACAGCUUGCAUUCUAUUUAGAAA,0.000715 ± 0.0063
21,UCCACGUACAGCUUGCAUAGUAUUUUCAAA,0.00217 ± 0.0031

# A different layout for part of the listing above.
row | Sequence | pre-steady-state target cleavage rate
1 | UGGACCUACAGCUUGCAUAGUAAAAAGAAA | 0.000665 ± 0.0073
11 | UCCACCUACUGCUUGCAUAGUAUUUUCAAA | 0.00164 ± 0.0033
